Not every detail of the peptide structures is certain; ends, links or a residue may be inferred. Ends that are not written are not given here.
How the values were obtained:
[1] = system: complex between IGFBP-3 and NONO/SFPQ in M059K cells; assay: Co-immunoprecipitation with IGFBP-3-Fab beads and western blotting, M059K glioblastoma cells; type: cell-based, human; conditions: 25 μM peptide for 1 h prior to 20 μM etoposide
[2] = system: HCC1806 breast cancer cells; assay: 14-day colony formation or clonogenic survival assay; type: cell-based, human; conditions: for Effect on cell survival (colony formation) over PARPi alone: 20 μM peptide with 5 μM veliparib
Description: HCC1806 cells (500 cells/well) were plated in 6-well plates for 24 h prior to being treated with or without 5 μM of PARPi (veliparib) for a further 24 h. […] Colonies were washed with PBS and stained using 0.5% Crystal Violet (Sigma Aldrich) in 20% methanol for 30 min prior to rinsing with water. Colonies, defined as clusters of at least 30 cells, were imaged and counted with an AID vSpot Spectrum imager (AutoImmun Diagnostika GmbH, Strassberg, Germany).
The 14-day colony formation or clonogenic survival assay measures the ability of cells to survive 2 days of chemotherapy-induced DNA damage, and form colonies of at least 30 cells over the next 12 days. […] The purpose was to find conditions under which the cells become more sensitive to this low dose of chemotherapy.

[3] = system: γH2AX signal in MDA-MB-468 or HCC1806 human TNBC cells; assay: γH2AX response to etoposide, peptide in the presence of PARP inhibitors (blot); type: cell-based; conditions: then etoposide
[4] = target: T1, IGFBP-3 complexes with NONO (NONO/SFPQ) in MDA-MB-468 cells (Homo sapiens, UniProt Q15233); assay: Co-immunoprecipitation with IGFBP-3-Fab beads and western blotting, MDA-MB-468 cells; type: cell-based; conditions: 10 μM peptide for 1 h prior to 20 μM etoposide
T1 construct: endogenous in cells; host or cells: MDA-MB-468; HCC1806
T1 sequence (Q15233 1-471): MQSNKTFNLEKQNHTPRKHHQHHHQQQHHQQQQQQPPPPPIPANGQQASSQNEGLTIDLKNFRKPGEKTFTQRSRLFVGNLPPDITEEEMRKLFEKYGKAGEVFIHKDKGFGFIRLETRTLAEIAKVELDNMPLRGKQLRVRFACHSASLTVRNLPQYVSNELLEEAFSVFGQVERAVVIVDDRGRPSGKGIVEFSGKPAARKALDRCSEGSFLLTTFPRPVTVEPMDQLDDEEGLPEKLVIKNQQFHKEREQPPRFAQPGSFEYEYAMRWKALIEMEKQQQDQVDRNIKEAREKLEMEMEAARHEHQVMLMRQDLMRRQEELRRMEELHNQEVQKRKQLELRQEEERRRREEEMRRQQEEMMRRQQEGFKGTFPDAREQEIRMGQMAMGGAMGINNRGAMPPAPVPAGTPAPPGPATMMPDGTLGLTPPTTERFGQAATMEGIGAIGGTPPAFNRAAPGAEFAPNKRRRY
T1 sequence (P23246 1-707 partner): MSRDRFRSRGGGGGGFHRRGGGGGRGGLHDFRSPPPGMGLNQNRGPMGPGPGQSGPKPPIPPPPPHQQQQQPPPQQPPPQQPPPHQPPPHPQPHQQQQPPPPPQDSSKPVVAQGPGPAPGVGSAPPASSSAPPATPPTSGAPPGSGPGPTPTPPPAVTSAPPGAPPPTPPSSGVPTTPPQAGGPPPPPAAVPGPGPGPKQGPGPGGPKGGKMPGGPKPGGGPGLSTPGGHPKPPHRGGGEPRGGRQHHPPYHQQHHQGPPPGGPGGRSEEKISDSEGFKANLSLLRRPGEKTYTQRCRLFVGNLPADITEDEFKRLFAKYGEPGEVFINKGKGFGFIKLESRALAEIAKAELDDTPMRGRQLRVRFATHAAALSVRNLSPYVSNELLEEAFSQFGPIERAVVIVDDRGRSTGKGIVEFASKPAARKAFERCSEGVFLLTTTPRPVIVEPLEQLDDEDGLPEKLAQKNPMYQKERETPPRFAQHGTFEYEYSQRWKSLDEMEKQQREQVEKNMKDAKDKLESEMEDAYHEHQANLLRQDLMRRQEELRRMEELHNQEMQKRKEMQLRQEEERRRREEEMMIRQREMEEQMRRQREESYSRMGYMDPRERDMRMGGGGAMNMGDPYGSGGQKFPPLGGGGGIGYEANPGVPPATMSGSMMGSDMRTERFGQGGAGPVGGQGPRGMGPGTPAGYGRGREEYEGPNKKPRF
Description: The human basal-like triple negative breast cancer (TNBC) cell lines MDA-MB-468 and HCC1806 were obtained from ATCC, Manassas, Va. and maintained in RPMI 1640 medium containing 5% FBS and 10 μg/mL bovine insulin under standard conditions. Cryopreserved stocks were established within 1 month of receipt, and fresh cultures for use in experiments were established from these stocks every 2 to 3 months.

[5] = system: γH2AX signal in HCC1806 cells; assay: γH2AX response to etoposide after peptide incubation (blot), HCC1806 cells; type: cell-based, human; conditions: 16 h incubation with peptide at 10 μM, 25 μM etoposide
Description: (§1) An elevated γH2AX signal is indicative of sustained DNA damage (i.e. inhibition of DNA repair) compared to the control cells. Peptide #66 was also evaluated in the presence of PARP inhibitors, veliparib (ABT-888) and olaparib (Lynparza). In FIG. 5e and FIG. 5f, the γH2AX signal in the absence of peptide #66 is expressed as 100%, and bars represent the ratio of γH2AX signal in the presence of the peptide, to that in its absence.

[6] = target: T2, IGFBP-3 complexes with NONO (NONO/SFPQ) in HCC1806 cells (Homo sapiens, UniProt Q15233); assay: Co-immunoprecipitation with IGFBP-3-Fab beads and western blotting, HCC1806 cells; type: cell-based; conditions: 20 μM peptide for 1 h prior to 20 μM etoposide
T2 construct: endogenous in cells; host or cells: MDA-MB-468; HCC1806
T2 sequence (Q15233 1-471): T1 sequence (Q15233 1-471)
T2 sequence (P23246 1-707 partner): T1 sequence (P23246 1-707 partner)

[7] = system: γH2AX signal in MDA-MB-468 cells; assay: γH2AX response to etoposide after peptide incubation (blot), MDA-MB-468 cells; type: cell-based, human; conditions: 16 h incubation with peptide at 10 μM, 25 μM etoposide
Description: as §1

[8] = target: T3, NONO-IGFBP-3 interaction (recombinant human IGFBP-3 binding to immobilized recombinant human NONO) (Homo sapiens, UniProt Q15233); assay: NONO-IGFBP-3 binding assay (ELISA format, peptide screening); conditions: final peptide concentration 10 μM, IGFBP-3 approx. 6 nM; 3 assays
T3 construct: purchased Origene TP326567
T3 sequence (Q15233 1-471): T1 sequence (Q15233 1-471)

HLKFLNVLSPRG [Peptide #66]
Effect on formation of complexes between IGFBP-3 and NONO/SFPQ after etoposide (coIP) [1]: inhibited | Effect on cell survival (colony formation) over PARPi alone ([2]; 100 nM etoposide): highly significant further inhibition of cell survival | Effect on cell survival (colony formation) over PARPi alone ([2]; in the absence of etoposide): no additional effect | Effect on cell survival over 14 days (colony number) ([2]; 20 μM peptide, in the absence of a PARPi, before or after etoposide 100 nM): no effect on cell survival | Increase of γH2AX signal in the presence of the peptide relative to its absence ([3]; 10 μM peptide with preincubation with 10 μM olaparib (Lynparza)): ~2 fold | Increase of γH2AX signal in the presence of the peptide relative to its absence ([3]; 10 μM peptide with preincubation with 10 μM veliparib (ABT-888)): ~2 fold | Effect on formation of complexes between IGFBP-3 and NONO or SFPQ after etoposide (coIP band density) [4]: inhibited | γH2AX signal (sustained DNA damage) compared to no peptide [5]: sustained γH2AX signal | Effect on formation of complexes between IGFBP-3 and NONO or SFPQ after etoposide (coIP band density) [6]: inhibited | γH2AX signal (sustained DNA damage) compared to no peptide [7]: sustained γH2AX signal | Inhibition of IGFBP-3 binding to NONO (absorbance at 450 nm) [8]: consistently inhibited

Reference: patent publication US20220259265A1, “Inhibitors and Use Thereof in Cancer Treatment” (The University of Sydney, priority 2019, published 2022)
